Experimental findings from article PMC10575729 are described below.

The chains behind the UniProt entries cited, without tags or fusion partners.
UniProt Q9H4Z3: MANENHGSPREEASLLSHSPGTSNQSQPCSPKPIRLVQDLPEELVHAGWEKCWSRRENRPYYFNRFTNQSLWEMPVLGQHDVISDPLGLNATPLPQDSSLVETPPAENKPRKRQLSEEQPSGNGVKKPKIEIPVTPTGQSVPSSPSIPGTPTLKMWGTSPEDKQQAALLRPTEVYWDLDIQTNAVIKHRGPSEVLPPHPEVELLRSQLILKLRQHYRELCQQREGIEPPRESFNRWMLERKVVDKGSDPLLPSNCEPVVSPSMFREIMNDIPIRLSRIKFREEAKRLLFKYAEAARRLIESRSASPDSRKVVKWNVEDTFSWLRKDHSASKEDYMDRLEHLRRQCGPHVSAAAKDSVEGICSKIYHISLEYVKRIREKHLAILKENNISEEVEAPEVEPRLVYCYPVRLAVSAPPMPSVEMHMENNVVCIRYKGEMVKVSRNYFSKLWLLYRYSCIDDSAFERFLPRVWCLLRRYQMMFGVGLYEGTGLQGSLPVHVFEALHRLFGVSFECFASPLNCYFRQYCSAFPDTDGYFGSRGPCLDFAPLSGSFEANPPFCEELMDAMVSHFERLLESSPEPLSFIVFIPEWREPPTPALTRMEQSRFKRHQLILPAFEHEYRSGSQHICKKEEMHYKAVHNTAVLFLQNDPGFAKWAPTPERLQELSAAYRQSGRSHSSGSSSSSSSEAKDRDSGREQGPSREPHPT

Assay [1] concerns the target Phosphorylated RNA polymerase II CTD-interacting factor 1 (PCIF1), endogenous (human (endogenous in SCC25)) (UniProt Q9H4Z3). Briefly: co-IP; endogenous PCIF1 and CTBP2 in SCC25 cells; IP buffer (Beyotime), 2 ug primary antibody, magnetic beads, Western blot. (In general: Immunoblotting shows a protein as a band on a membrane.)
The next assay deals with GST-CTBP2 (UniProt P56545). Nature of the assay: pull-down; GST-CTBP2 or GST control incubated with lysates of SCC1 cells transfected with PCIF1-FLAG for 2 hours at 4°C, bound to GST beads; blot with anti-FLAG and anti-GST (the results call both proteins purified recombinant); only the target purified.

No constants are given. Whether binding was seen depends on the method and setting. In cells and extracts the contact can be indirect. Some entries that bind do so weakly or less than the wild type.

In the case of “C-terminal binding protein 2 (CTBP2), endogenous (from UniProt P56545 1-445)”, the binding entry in assay [1] is reported as “binds”.

“FLAG-PCIF1 (GST pull-down) (from UniProt Q9H4Z3 1-704)”: in the assay with GST-CTBP2, the binding entry is reported as “binds”.
